# Experimental data as given in PubChem BioAssay AID504444 (National Center for Advancing Translational Sciences (NCATS), 2011).
# In all, about 360,000 compounds went through this assay and about 7,500 (2.1%) were called active. Inconclusive means that the source gave no clear call. Such entries were picked first, then a sample of the others. Calls follow the shape of the dose curve; as a rule, active = well fitted inhibition curve with a large enough effect; inconclusive = small, poorly fitted or top-dose-only effect, or effect the other way; inactive = flat fitted curve, though single readings scatter. Where the call is inconclusive, the potency comes from a doubtful curve fit.
# Test: Nrf2 qHTS screen for inhibitors; also: nearly all actives have a fitted effect of over 60% in size
# Conditions: A549 ARE-Fluc reporter, luciferase luminescence, 18-24 h; activity change, negative = inhibition: at 46 µM (top of the series)
# Summary of the method: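 Nrf2 activity is the BugLite luminescence, read 15 min after reagent at room temperature, following CellTiter-Fluor cytotoxicity readout (30 min, 37C). Compound titrations were applied for 18-24 h to 5000 A549 ARE_Fluc cells/well in 5% FBS OPTI-MEM.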
# % is scaled to controls: 0 for no effect and ±100 for the full control effect; potency is read from the fitted curve at half-maximal effect.
Structure (SMILES),Potency,"activity change, negative = inhibition"
COc1ccc(/C=C2\SC(=S)N(CCCC(=O)N3CCCCC3CCO)C2=O)cc1 (stereo not drawn),"inconclusive: 25.9 µM [falling, single point]",–
COCc1c(C(=O)NCCc2ccc(OC(F)F)cc2)oc2ccccc12,"inconclusive: 32.6 µM [falling, single point]",–
C=CCOn1c(=O)c(-c2cc3ccccc3o2)[n+]([O-])c2ccccc21,"inconclusive: 0.0326 µM [activator, full curve]",–
Cc1ccccc1NC1=NC(=S)N(c2ccccc2)C12CCCCC2,–,inactive: 2.04%
Cn1cnc([N+](=O)[O-])c1Oc1ccc2ccccc2c1,"inconclusive: 5.17 µM [falling, full curve]",–
O=C1CCCN2N=C(SCC(=O)Nc3cccc(C(F)(F)F)c3)SC2=N1,active: 16.4 µM,–
COc1ccc(-n2nc(C(=O)NCC(=O)Nc3ccccn3)c3ccccc3c2=O)cc1,"inconclusive: 25.9 µM [falling, partial curve, poor fit]",–
CCCOc1ccc(C2c3c(-c4ccccc4O)n[nH]c3C(=O)N2Cc2cccnc2)cc1 (stereo not drawn),"inconclusive: 29.1 µM [falling, single point]",–
CC(C)OCCCn1c(=O)c2ccccc2n2c(-c3cc(Cl)ccc3O)nnc12,"inconclusive: 25.9 µM [falling, single point]",–
COC(=O)C1=CN(CCOC23CC4CC(CC(C4)C2)C3)C=C(C(=O)OC)C1c1ccsc1,"inconclusive: 25.9 µM [falling, single point]",–
CC(C)c1ccc(OCC(=O)N(Cc2ccccc2)c2ccccn2)cc1,"inconclusive: 18.4 µM [falling, single point]",–
C=CCOC(=O)c1sc(NC(=O)c2ccc(OC)cc2)nc1C,"inconclusive: 9.2 µM [falling, partial curve, poor fit]",–
CCN(CC)c1ccc(NC(=O)C2CC3CCC2C3)cc1 (stereo not drawn),"inconclusive: 0.517 µM [activator, full curve, poor fit]",–
CC1CCC2(CC1)OCC1(CCC3(COC4(CCC(C)CC4)OC3)C1=O)CO2 (stereo not drawn),–,inactive: -2.24%
Cc1ccc(C2=NOC(C)(c3sc(-c4ccc(Cl)cc4)nc3C)C2)cc1 (stereo not drawn),"inconclusive: 20.6 µM [activator, single point]",–
COc1ccc2nc(-c3ccccc3)cc(C(=O)OCC(=O)NC3CC3)c2c1,–,inactive: 23.7%
COc1ccc(NC(=O)C2CCCN2S(=O)(=O)c2ccc3c(c2)CCC(=O)N3)c(OC)c1 (stereo not drawn),"inconclusive: 8.2 µM [falling, partial curve, poor fit]",–
CN(C)C(=O)N1CCCC(C(=O)NCc2ccccc2)C1 (stereo not drawn),"inconclusive: 0.0037 µM [falling, full curve, poor fit]",–
COC(=O)c1ccccc1NC(=O)c1cc(CN2CCOCC2)on1,–,inactive: 19.4%
CCc1nc(N2CCC(C)CC2)c2oc3ccccc3c2n1,"inconclusive: 20.6 µM [falling, partial curve, poor fit]",–
Clc1ccc(-c2csc(-c3ccncc3)n2)cc1,"inconclusive: 20.6 µM [activator, single point]",–

Structure (SMILES),Potency,"activity change, negative = inhibition"
O=CN1CCN(C(=O)c2cccc3c2-c2ccccc2C3=O)CC1,–,inactive: -10.2%
COc1ccccc1N1CCN(C2CCN(S(=O)(=O)c3ccc4ccccc4c3)CC2)CC1,"inconclusive: 29.1 µM [falling, single point]",–
C=CCSC1=NNC(c2ccc(C(C)(C)C)cc2)=NN1,"inconclusive: 23.1 µM [activator, single point]",–
COc1ccc(-c2onc(C)c2C)cc1S(=O)(=O)Nc1cc(Cl)ccc1C,"inconclusive: 14.6 µM [falling, partial curve, poor fit]",–
COc1ccccc1NS(=O)(=O)c1cc(N)ccc1N1CCCCC1,"inconclusive: 0.146 µM [falling, full curve, poor fit]",–
Cc1ccc(NC(=O)Cn2c(=O)oc3cc(S(=O)(=O)N4CCCCC4)ccc32)c(C)c1,"inconclusive: 5.17 µM [falling, partial curve, poor fit]",–
CCC(=O)Nc1ccc(CC)cc1-c1nc2ccccc2n(CC(=O)Nc2ccccc2C)c1=O,–,inactive: 6.2%
Cc1ccc(CNc2ncnc3onc(C)c23)cc1,active: 8.2 µM,–
COc1ccc(C(C)=O)cc1CSc1nnc(Nc2ccccc2C)s1,"inconclusive: 23.1 µM [falling, partial curve, poor fit]",–
CCOC(=O)c1cc(-c2ccccc2)sc1NC(=O)COC(=O)c1cccc(S(N)(=O)=O)c1,–,inactive: -19.1%
COc1cc(OC)cc(C(=O)N=c2sc3ccccc3n2C)c1,"inconclusive: 9.2 µM [activator, partial curve, poor fit]",–
CC(C)Cn1c(N)c(C=O)c(=O)[nH]c1=O,"inconclusive: 18.4 µM [falling, partial curve, poor fit]",–
CCN(CC)S(=O)(=O)c1ccc(N2CCOCC2)c(NC(=O)Cc2ccc(Cl)cc2)c1,"inconclusive: 29.1 µM [falling, single point]",–
CC(C)(C)S(=O)(=O)c1cnc(-c2ccc(Cl)cc2)nc1N,"inconclusive: 3.66 µM [activator, full curve, poor fit]",–
Cc1ccc(-n2nc(C)c3c(C)c(CCC(=O)Nc4ccc(CN5CCCC5)cc4)c(C)nc32)cc1,"inconclusive: 11.6 µM [activator, partial curve, poor fit]",–
CN(C(=O)c1ccc(Br)o1)C1CCCCC1,"inconclusive: 18.4 µM [activator, partial curve]",–
Cc1ccc(-c2csc(-c3c[nH]c4ccccc34)n2)cc1,"inconclusive: 1.3 µM [activator, partial curve]",–
CCCCOc1ccc(CNC(=O)C2CCCN(c3nnc(-n4c(C)ccc4C)s3)C2)cc1 (stereo not drawn),"inconclusive: 23.1 µM [falling, single point]",–
C/C(=C\c1ccc(Cl)cc1)C(=O)c1c(C)cc(C)[nH]c1=O,"inconclusive: 23.1 µM [falling, single point]",–
O=C(NCc1ccco1)c1nn2c(C(F)(F)F)cc(-c3cccs3)nc2c1Br,"inconclusive: 18.4 µM [falling, partial curve, poor fit]",–
CCc1ccc(-c2cc(C)no2)cc1S(=O)(=O)Nc1cc(OC)c(OC)c(OC)c1,–,inactive: 0.898%

# Four compounds already listed, sorted by molecular weight, low to high.
Structure (SMILES),Potency,"activity change, negative = inhibition"
CC(C)Cn1c(N)c(C=O)c(=O)[nH]c1=O,"inconclusive: 18.4 µM [falling, partial curve, poor fit]",–
CC(C)(C)S(=O)(=O)c1cnc(-c2ccc(Cl)cc2)nc1N,"inconclusive: 3.66 µM [activator, full curve, poor fit]",–
O=C(NCc1ccco1)c1nn2c(C(F)(F)F)cc(-c3cccs3)nc2c1Br,"inconclusive: 18.4 µM [falling, partial curve, poor fit]",–
Cc1ccc(-n2nc(C)c3c(C)c(CCC(=O)Nc4ccc(CN5CCCC5)cc4)c(C)nc32)cc1,"inconclusive: 11.6 µM [activator, partial curve, poor fit]",–

# Following part.

Structure (SMILES),Potency,"activity change, negative = inhibition"
Cc1ccc2c(c1)sc1nc(=O)n(-c3ccc(Cl)c(Cl)c3)c(=O)n12,inactive,–
CCc1ccccc1NC(=O)CN1C(=O)c2cccnc2Sc2ccccc21,"inconclusive: 14.6 µM [activator, partial curve]",–
Cc1cc(C)cc(OC(C)C(=O)Nc2ccc(S(=O)(=O)Nc3cc(C)nc(C)n3)cc2)c1 (stereo not drawn),"inconclusive: 32.6 µM [falling, partial curve, poor fit]",–
O=C(Oc1cccc(-n2cnnn2)c1)c1sc2ccccc2c1Cl,"inconclusive: 13 µM [falling, partial curve]",–
CCOc1cc2[nH]c(=S)n(C(C)C)c(=O)c2cc1OCC,"inconclusive: 29.1 µM [falling, single point]",–
Cc1ccc(C)c(S(=O)(=O)N2CCN(C(=O)C3CCN(c4ncnc5sc(C)c(C)c45)CC3)CC2)c1,"inconclusive: 23.1 µM [falling, single point]",–
CC1(C)CN(c2ccccc2)N(C(=O)c2ccc(C#N)cc2)C1=O,"inconclusive: 29.1 µM [activator, single point]",–
CCn1c(=O)c2sccc2n2c(CCC(=O)Nc3ccc(OC)cc3OC)nnc12,–,inactive: -9.98%
O=C(CSc1ncnc2c1nnn2Cc1ccc(F)cc1)NCC1CCCO1 (stereo not drawn),"inconclusive: 29.1 µM [falling, single point]",–
O=C(Cc1ccccc1F)Nc1cc(S(=O)(=O)N2CCOCC2)ccc1N1CCOCC1,"inconclusive: 2.91 µM [falling, partial curve, poor fit]",–
Cn1c(SCC(=O)Nc2ccccc2F)nnc1-c1ccc(S(=O)(=O)N2CCOCC2)cc1,"inconclusive: 1.64 µM [falling, full curve]",–
O=C(CCc1ccccc1)NC(=S)Nc1cc(C(F)(F)F)ccc1N1CCOCC1,"inconclusive: 18.4 µM [falling, single point]",–
CCC(CC)C(=O)Nc1cccc(C(=O)Nc2ccc(S(N)(=O)=O)cc2)c1,"inconclusive: 20.6 µM [falling, single point]",–
COc1cc(-c2nc3oc4ccccc4c(=O)c3c(=O)n2Cc2ccco2)cc(OC)c1OC,"inconclusive: 29.1 µM [activator, single point]",–
CC(=C/C(=O)O)/C(=C/c1ccccc1)C(=O)O,"inconclusive: 0.366 µM [falling, full curve, poor fit]",–
S=C(Nc1ccc(Oc2ccccc2)cc1)N1CCN(c2ccccn2)CC1,active: 16.4 µM,–
O=c1c2ccccc2n(Cc2c(F)cccc2Cl)c(=O)n1Cc1ccccc1,"inconclusive: 2.91 µM [falling, partial curve, poor fit]",–
O=S(=O)(NCC(c1ccccc1)N1CCc2ccccc21)c1ccccc1 (stereo not drawn),"inconclusive: 25.9 µM [falling, single point]",–
CC(NC(=O)CSc1nc(-c2cccc(Cl)c2)nc2cc(=O)[nH]n12)c1nc2ccccc2n1C (stereo not drawn),"inconclusive: 29.1 µM [activator, single point]",–
COc1ccc(-c2nc3ccccc3s2)cc1NC(=O)c1cccc([N+](=O)[O-])c1C,"inconclusive: 8.2 µM [activator, partial curve]",–
CCOc1ccc2ccccc2c1/C=N\NC(=O)OC,"inconclusive: 0.82 µM [activator, full curve, poor fit]",–
